# Assay results as given in PubChem BioAssay AID2685 (National Center for Advancing Translational Sciences (NCATS), 2010).
# This is one part of the list. Further columns of the screen follow, without active or inactive calls. The list favours compounds with an active or inconclusive main result. The note in brackets gives the kind of curve behind each potency; many fits are weak.
# Test: qHTS Assay for Lipid Storage Modulators in Drosophila S3 Cells;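 on cell number change: cells counted by Cell Tracker Red CMTPX staining in the red channel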
# Settings: BODIPY lipid droplet fluorescence, 18-24 h; for cell number change: measured here: cell count max response, cells fed with added oleic acid
# In short: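 Laser-scanning cytometry quantifies lipid droplet accumulation (500–530 nm total intensity; droplet/cell object ratio) in oleic acid-fed (400 uM added) Drosophila S3 cells treated with a concentration series. 20 uM Triacsin C defined 100% inhibition.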
# [1] = measured here: cell number channel AC50, cells fed with added oleic acid
# [2] = measured here: lipid fluorescence (Fed channel) AC50, cells fed with added oleic acid
SMILES,cell number change,AC50 [1],AC50 [2]
CN(C)CCCN1c2ccccc2Sc2ccc(C(F)(F)F)cc21,-43%,"20.6 µM [falling, single point]","0.00461 µM [rising, full curve, poor fit]"
OC1CCC(Nc2ncnc3sccc23)CC1 (configuration not stated),-27.6%,–,–
Nc1nc(-c2ccccc2)cs1,-67.8%,"7.31 µM [falling, partial curve]","14.6 µM [falling, partial curve]"
O=[N+]([O-])c1cc([N+](=O)[O-])c(Oc2c(F)cccc2F)cc1NN1CCCCC1,17.7%,–,"18.4 µM [rising, single point]"
CCN(C(=O)C1CCCN1S(=O)(=O)c1cccc2nsnc12)c1ccccc1 (configuration not stated),-13%,–,"16.4 µM [rising, partial curve, poor fit]"
COc1ccc(-c2cc(-c3cccs3)nc(OC)c2C#N)cc1OC,-35.6%,"14.6 µM [falling, single point]","14.6 µM [falling, single point]"
CNCCCNCc1ccc(SC)cc1,-20.1%,–,"3.66 µM [falling, partial curve, poor fit]"
COc1cccc(C(=O)Nc2cccc(C(=O)N3CCOCC3)c2)c1,-64.1%,"20.6 µM [falling, partial curve]","20.6 µM [falling, partial curve]"
Cc1c(NC(=O)c2ccc(Br)s2)c(=O)n(-c2ccccc2)n1C,-3.95%,–,"29.1 µM [falling, single point]"
Cc1ccc(OCC(=O)NNC(=O)Cn2c(=O)cnc3ccccc32)cc1,15.2%,–,"0.0164 µM [rising, full curve, poor fit]"
Cc1ccc(NC(=O)C(C)OC(=O)c2ccc(Cl)nc2)cc1S(=O)(=O)N1CCOCC1 (configuration not stated),–,–,"2.31 µM [falling, partial curve]"
Cc1nc(-c2cccc(NC(=O)c3ccco3)c2)cs1,-7.8%,–,"29.1 µM [falling, partial curve, poor fit]"
CCNc1nc2nonc2nc1NCC,5.91%,"0.00461 µM [falling, full curve, poor fit]",–
Cc1csc(SCc2nnc(-c3ccc(Cl)cc3)o2)n1,250%,"25.9 µM [rising, single point]","23.1 µM [rising, partial curve]"
O=C(Nc1cnn(Cc2c(Cl)cccc2Cl)c1)c1ccc([N+](=O)[O-])cc1,-5.33%,–,"0.411 µM [falling, single point]"
Clc1ncccc1-c1nnn(-c2ccccc2Br)n1,9.4%,–,"0.651 µM [rising, single point]"
COc1ccc(N2CCN(Cc3oc(CO)cc(=O)c3O)CC2)cc1,-14.9%,–,"0.116 µM [falling, full curve, poor fit]"
CC1Cn2c(nc3c2c(=O)[nH]c(=O)n3C)O1 (configuration not stated),1.07%,–,"7.31 µM [rising, single point]"
CC1CN(S(=O)(=O)c2cccc(C(=O)N(CCc3ccccc3)Cc3ccccc3)c2)CC(C)O1 (configuration not stated),-16.6%,–,–
CCC(C)c1ccc(NC(=O)C/C(C)=N/NC(=O)c2cnccn2)cc1 (configuration not stated),4.58%,–,"23.1 µM [rising, single point]"
O=C(NCc1ccc(Cl)cc1)c1ccc2ccccc2n1,27.5%,–,"1.84 µM [rising, partial curve]"
O=C(CC1SC(=Nc2ccccc2)N(CCCO)C1=O)Nc1ccc(Cl)cc1 (configuration not stated),9.68%,"6.51 µM [rising, single point]",–
Cc1cccc(C)c1NC(=S)NC(=O)c1ccccc1F,5.49%,–,–
COc1cc(O)c(C(CCN2CCCC2)c2ccc3c(c2)OCO3)c(OC)c1 (configuration not stated),15.3%,–,"29.1 µM [rising, single point]"
O=C(CN1CCCCC1)NC(=O)NC1CCCC1,-34%,"7.31 µM [falling, partial curve, poor fit]","16.4 µM [falling, partial curve]"
Cc1cccc(N2CCN(S(=O)(=O)c3cnc[nH]3)CC2)c1C,-24.2%,"4.11 µM [falling, partial curve]","0.103 µM [falling, full curve, poor fit]"
Cc1ccc2c(c1)N(C)/C(=C/c1cccc[n+]1CCO)S2,-7.8%,"2.91 µM [rising, single point]",–

# A second format for some results above.
SMILES	cell number change	AC50 [1]	AC50 [2]
O=C(Nc1cnn(Cc2c(Cl)cccc2Cl)c1)c1ccc([N+](=O)[O-])cc1	-5.33%	–	0.411 µM [falling, single point]
Clc1ncccc1-c1nnn(-c2ccccc2Br)n1	9.4%	–	0.651 µM [rising, single point]
COc1ccc(N2CCN(Cc3oc(CO)cc(=O)c3O)CC2)cc1	-14.9%	–	0.116 µM [falling, full curve, poor fit]
CC1Cn2c(nc3c2c(=O)[nH]c(=O)n3C)O1 (configuration not stated)	1.07%	–	7.31 µM [rising, single point]
CC1CN(S(=O)(=O)c2cccc(C(=O)N(CCc3ccccc3)Cc3ccccc3)c2)CC(C)O1 (configuration not stated)	-16.6%	–	–
CCC(C)c1ccc(NC(=O)C/C(C)=N/NC(=O)c2cnccn2)cc1 (configuration not stated)	4.58%	–	23.1 µM [rising, single point]
